In article PMC3765969:
Results are given in words; binding and its absence hold for the method and conditions named. Binding seen in cells or lysates may run through a third protein. Some results given as binding are weak or reduced against the parent protein; the word gives no strength.

Amino acid sequences for entries named in this document (tags omitted).
UniProt P12004: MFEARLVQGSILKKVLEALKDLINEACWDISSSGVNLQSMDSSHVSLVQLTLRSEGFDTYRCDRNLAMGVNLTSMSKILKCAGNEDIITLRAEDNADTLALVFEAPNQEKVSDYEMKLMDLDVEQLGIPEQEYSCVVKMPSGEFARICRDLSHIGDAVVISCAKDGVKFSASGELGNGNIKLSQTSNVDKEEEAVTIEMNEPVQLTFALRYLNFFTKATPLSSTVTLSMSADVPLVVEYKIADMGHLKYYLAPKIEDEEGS
UniProt Q13547: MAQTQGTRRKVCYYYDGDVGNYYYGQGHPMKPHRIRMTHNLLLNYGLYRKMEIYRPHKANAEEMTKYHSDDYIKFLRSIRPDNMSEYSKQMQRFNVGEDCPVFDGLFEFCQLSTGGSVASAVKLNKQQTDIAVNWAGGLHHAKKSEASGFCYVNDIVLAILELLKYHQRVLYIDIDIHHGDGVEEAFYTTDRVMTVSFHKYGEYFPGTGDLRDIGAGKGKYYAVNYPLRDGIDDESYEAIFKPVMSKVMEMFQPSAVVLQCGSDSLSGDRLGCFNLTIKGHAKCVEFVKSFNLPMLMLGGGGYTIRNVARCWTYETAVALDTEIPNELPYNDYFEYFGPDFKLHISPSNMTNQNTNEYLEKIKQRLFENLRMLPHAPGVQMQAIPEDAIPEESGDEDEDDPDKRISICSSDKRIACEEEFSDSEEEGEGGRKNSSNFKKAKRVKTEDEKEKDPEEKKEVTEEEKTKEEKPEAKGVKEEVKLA
UniProt Q92769: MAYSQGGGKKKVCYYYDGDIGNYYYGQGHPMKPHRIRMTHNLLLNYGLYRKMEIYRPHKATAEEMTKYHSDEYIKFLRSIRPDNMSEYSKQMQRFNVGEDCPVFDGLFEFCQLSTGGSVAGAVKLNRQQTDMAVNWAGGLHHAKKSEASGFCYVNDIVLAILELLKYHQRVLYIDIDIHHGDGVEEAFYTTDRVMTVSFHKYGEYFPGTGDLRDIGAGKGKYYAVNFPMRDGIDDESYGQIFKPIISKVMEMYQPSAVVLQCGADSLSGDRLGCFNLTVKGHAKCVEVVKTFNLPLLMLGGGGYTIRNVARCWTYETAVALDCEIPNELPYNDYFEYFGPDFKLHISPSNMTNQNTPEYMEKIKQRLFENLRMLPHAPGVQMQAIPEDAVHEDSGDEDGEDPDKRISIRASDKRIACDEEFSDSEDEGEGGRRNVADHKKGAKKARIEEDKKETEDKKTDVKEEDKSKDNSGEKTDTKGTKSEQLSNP

Molecular target: proliferating cell nuclear antigen (human (endogenous in HeLa)) (UniProt P12004)
Assay: co-IP; HeLa nuclear extract in RIPA buffer with protease inhibitors, precleared with Protein A-agarose; anti-PCNA antibody 12 h at 4°C (IgG as negative control), Protein A-agarose 1 h at 4°C, three washes with RIPA buffer; western blot for Hdac1 and Hdac2

| Substance | binding |
| --- | --- |
| histone deacetylase 1 (from UniProt Q13547 1-482) (enzyme) | binds |
| histone deacetylase 2 (from UniProt Q92769 1-488) (enzyme) | binds |
